From PubChem BioAssay AID1508600 (Functional Genomics Laboratory (NCATS/FGL), 2020)
The campaign covered roughly 53,000 sequences. About 3,700 (7%) were called active.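 Rule for the calls: active = gene knockdowns whose robust z-score for IL-1 alpha signal is at least 2 or at most -2, so actives lie on both sides; inactive = the rest.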 The list shows a part of the results.

test: Components of the Cytosolic LPS Sensing Pathway: Gene Identification via Genome-wide siRNA Screen; settings: RAW264.7 macrophages, IL-1a HTRF, actives lie on both sides, screened at 100 nM (by protocol), cells primed 5 h with Pam3CSK4 first;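 note: robust z of the log signal after scaling to non-targeting control siRNA wells of the plate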
Procedure, shortened: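 Knockdown: 100 nM siRNA, 48h, RAW264.7. Stimulation: Pam3CSK4 5 h, then LipidA via TransIT-TKO 24 h. Output: supernatant IL-1a HTRF, negative-control-normalized, log robust z-score; viability by CellTiter-Glo.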

Row | Sequence | z-score
1 | GGACAAUGUCCUCCAAUCUTT against Arhgef28 | inactive: -1.95
2 | GGACUAUCGGGAGAAAGUGTT against Ywhaq | inactive: -0.365
3 | CCUUGAUGCUCGUAGGAAGTT against Efr3a | inactive: -1.11
4 | GUGAGACCUACCAGAUGAATT against Vmn1r28 | inactive: 1.61
5 | GGAGUAUUACGUCUGAUAUTT against Nrxn1 | active: 2.39
6 | GCUCCGAUUAACAAAGCCGTT against Ints4 | inactive: 0.97
7 | GGACGGUCUUGCCUUCUUCTT against Fam222a | inactive: 0.901
8 | CCUACUCCAAUGCUGUAGCTT against Slc27a1 | inactive: -0.304
9 | GGAUUUUCUCUAUGCAGGCTT against Dcaf15 | inactive: 0.0862
10 | UUGGGAAAUCGAUUUUACCTT against Gm3579 | inactive: 0.132
11 | GGAAAGAUGAACAUGAAAGTT against Terf2 | inactive: 0.0214
12 | CCGCACCAUUCAGCUUUUUTT against Mmgt2 | inactive: 0.446
13 | GGCAGAGCAGUUUUCCUCATT against Kcna4 | inactive: -1.2
14 | GGUGUGUGCUUCAUCUAAATT against Smpdl3a | inactive: -0.142
15 | GGUCCAUUGAGCACUUUGCTT against Frmpd3 | inactive: -1.73
16 | GCUGAACGAGCAAUUGAGATT against Pabpc6 | inactive: 0.524
17 | GCAUAGUUUUUGACAAAACTT against Prmt6 | inactive: 0.979
18 | GGAAUAACAGAUCAUACAGTT against Olfr194 | inactive: -0.678
19 | CCCUAUUAGUGGAAGCAUGTT against Zfp738 | inactive: -1.94
20 | GGACUUGGAAGUAAUUUUCTT against C230071H18Rik | active: 2.06
21 | GCGCAUCAAAAUUGAGAGUTT against Helz | inactive: 0.559
22 | GCACCAUUUUAAGAUCUGCTT against Prr13 | inactive: 0.238

Row | Sequence | z-score
23 | CCACUUUCACAUGAAGUUATT against Eif2s3x | inactive: -0.7
24 | GGAAUCUGCUUUCAGCUUGTT against Olfr1044 | inactive: -0.152
25 | GGAAAGUCUAAAGGAAAUUTT against Crnkl1 | inactive: -1.07
26 | AGCUCAUUUACAAGUGAGGTT against 1700073E17Rik | inactive: 0.117
27 | GGUUGUCAGUAAGAACCUGTT against Polr3a | inactive: 0.275
28 | GGAGCUUCUAGAGAAGAUCTT against Tsen34 | inactive: -0.305
29 | GGAGCAUGGAACAAUAAUATT against Fli1 | inactive: 1.65
30 | GGUCAAAACUGCUCUGCACTT against Lepr | inactive: -1.73
31 | GUAUCCUUCACAACUGUCUTT against Olfr786 | inactive: -1.66
32 | GCUCACCACUUUUAAAACATT against Hectd2 | inactive: -0.122
33 | GGCAGUAAGAAAGGUUCAATT against Btk | inactive: -0.437
34 | GGAUGUUGAAGAUGAGUCATT against Haus3 | inactive: 0.707
35 | GGAUGCAUCUAAGGAUAAGTT against Gna13 | inactive: -1.36
36 | CGGUGGUAGAUGAGAUGUUTT against Ap2s1 | inactive: -1.09
37 | CGUUCAUUUCUAAUGGAAATT against Fkbp14 | inactive: 0.474
38 | GGACGAGGAGUACGAGCAATT against Nfkbia | active: 2.6
39 | GGUAUAAGUUGGCAAGAUCTT against Cry2 | inactive: 0.849
40 | GCAGGUUAAGUAGCUGACATT against Dync1li2 | active: -2.37
41 | UAGCCAUCGCUCUUUCUUATT against Olfr594 | inactive: 0.216
42 | GGGUUUUUGUCAAAUCUGUTT against Ttc5 | active: -2.24
43 | CCAACAACAGAUGCACCCUTT against Ccl11 | inactive: -1.22
44 | GCUUUUGAUCCACAGAUUUTT against Prss33 | inactive: 0.372

Row | Sequence | z-score
45 | CCACCGUAAACUUCCCACCTT against Igha | inactive: -0.483
46 | GCUGUGUAGUGUGCUAUUUTT against Slc6a15 | inactive: 1.18
47 | GGUGACUAUGAAGAAAAAATT against F13a1 | inactive: -0.727
48 | CGUGAUGUUUCGGAAGACATT against Grtp1 | inactive: 1.44
49 | GGCUCUGCCAUUUUCCCUUTT against F12 | inactive: -1.24
50 | AACUGGACCACGGUACCAATT against A330070K13Rik | inactive: 0.876
51 | GGAAGUAAUCAAGAAAUCATT against Gpx4 | inactive: 0.395
52 | GCUUCUUACUGAUUGAUUGTT against Mgrn1 | inactive: 0.151
53 | GGAUCCAUUUUGAGGAUUUTT against Vipr1 | inactive: -0.056
54 | CCAGUGUUCUUACCUGGUGTT against Sesn2 | inactive: 0.949
55 | GGUCUAACGAGUUCAAAAATT against Brpf1 | inactive: -0.438
56 | GGGAGGGAUGCAGUAAAUGTT against Acaa1a | inactive: -0.337
57 | GCAUACCUAGGAAAAAACUTT against Ednra | inactive: 0.524
58 | GGUGACAAAGAAAACAACATT against Il12rb2 | inactive: -0.242
59 | GCCACAGUAUAGCACAAAGTT against Zfp810 | inactive: 0.196
60 | GCCUGACACUUGAUAUGUATT against Slc25a23 | inactive: -1.63
61 | GGAGGUUUUCCACCACUUGTT against Efcc1 | active: -2.04
62 | GCGAGUGUAUAAUAUUCCUTT against Blnk | inactive: 1.07
63 | GCCUGUUAUUCAACAUUCUTT against Diaph2 | inactive: 1.18
64 | GGACUAAUGGUGUUCACUGTT against Pcnx4 | inactive: -1.35
65 | GGCAUGCUCAGGUCGUGUUTT against Rita1 | inactive: -1.74
66 | GGAACACAACUUCCUGUUCTT against Map11 | inactive: 1.05

Three records drawn at random from those above, as already listed:
Row | Sequence | z-score
59 | GCCACAGUAUAGCACAAAGTT against Zfp810 | inactive: 0.196
60 | GCCUGACACUUGAUAUGUATT against Slc25a23 | inactive: -1.63
46 | GCUGUGUAGUGUGCUAUUUTT against Slc6a15 | inactive: 1.18

Continued.

Row | Sequence | z-score
67 | GGGAGAGGACGACCUAAAATT against 4921524J17Rik | inactive: -0.0124
68 | GGCAUGAAUGGGAUACAUGTT against Srpk2 | inactive: -1.22
69 | GGAGCUUUGAAGAGACUGGTT against Olfr117 | active: -2.32
70 | GCAUCAAAUAGUGGUACCUTT against Lsm14a | inactive: -0.209
71 | GGUAUUUAGUAAACACCCATT against Edar | inactive: 0.413
72 | GGACUCUGAUCUCUAUCAGTT against Tac2 | inactive: -0.357
73 | GGGACUCAACCUAUAUCUUTT against Gnpat | inactive: 0.118
74 | GGCCAGGAGAAGAUUGAACTT against Ccdc42 | inactive: 0.00447
75 | CCCGGAUCUUUUCCUUACATT against Klf1 | inactive: -1.17
76 | GGUGAAAUUACAGCAUUGUTT against Otx1 | inactive: -0.673
77 | GGAACAUAAUGCAUUACCCTT against Nr1d2 | inactive: 1.17
78 | GGAAGAGCAUAUGGAAGACTT against Nxf7 | inactive: 0.362
79 | CGGUAGCCGGUCUUGGUGGTT against H2ac18 | inactive: 0.242
80 | CGGCGGUGUGUUGUUUUAGTT against Hmces | inactive: 0.36
81 | GGUUCCAGUCUUUAAUUUCTT against Tpst1 | inactive: 0.724
82 | GGGUUACCAGACUAACAAATT against Stfa3 | inactive: 0.763
83 | GGACAAGGAGGAUUUCUUCTT against Nprl2 | inactive: -0.226
84 | GGGCUGUUCUACUUAGUUATT against N6amt1 | inactive: 0.573
85 | GGAAGACAAUCGCUGCGUGTT against Tet3 | inactive: 0.927
86 | GCCAGGAGUCCUUUAGGAATT against Tmem159 | inactive: -0.184
87 | GCCCAGUUCAACGGUGAAUTT against Zbtb1 | inactive: -0.671
88 | GGAACAAAUUCUGGAGUUGTT against Zfp287 | inactive: 0.791

Row | Sequence | z-score
89 | GGUGUCCAAUAUUUUGAAGTT against Zfp120 | inactive: -0.839
90 | GCGAAGAAUGCAUCCUAAUTT against Rspo3 | inactive: -0.912
91 | GGACAGUUUAAGGACAACATT against Morn2 | inactive: 0.18
92 | GGAUAAAUGGUACAUUCAGTT against Coa7 | inactive: 0.958
93 | AAAGAGAUUGGAAAUCUUCTT against Ipcef1 | inactive: -0.449
94 | GGACAUGUUUGUGUUAAAGTT against Ctnna1 | inactive: 0.187
95 | GGAGCUGUUUGGACCUUCUTT against Adamtsl4 | inactive: -0.662
96 | GGUGAUUGUCAAGAUUAUGTT against Olfr651 | active: -2.1
97 | GGGACAAGUGACUGAAUUGTT against Dio3 | inactive: 0.408
98 | CCUAGACAAAGUUUCAAACTT against Xrcc4 | inactive: -0.662
99 | GGACAAGAUGGUGUCUAUCTT against Olfr1396 | inactive: 0.566
100 | GGCAUCGUAGGAUUUUUUGTT against Mtch2 | inactive: -0.229
101 | GCAACAUAAAAGAUUCUUGTT against Il1f5 | inactive: 0.424
102 | GGGCCUAUCUGAAAGUUUATT against Nrm | inactive: -0.262
103 | GGUUCAGAACCAGUCCAUCTT against Gdpd5 | inactive: -1.38
104 | CCCAUGAAGAUUGUAAGUCTT against Nol12 | inactive: -0.201
105 | GGAAAGACCUCUUGAUAGGTT against Tbkbp1 | inactive: 0.113
106 | CCAAUCAUGUGGAUAUUUATT against Syngr3 | inactive: -0.122
107 | GGAUUUGUAGUUCAUCUCATT against Olfr77 | inactive: 0.0834

From no. 89 up to 94, as listed above:
Row | Sequence | z-score
89 | GGUGUCCAAUAUUUUGAAGTT against Zfp120 | inactive: -0.839
90 | GCGAAGAAUGCAUCCUAAUTT against Rspo3 | inactive: -0.912
91 | GGACAGUUUAAGGACAACATT against Morn2 | inactive: 0.18
92 | GGAUAAAUGGUACAUUCAGTT against Coa7 | inactive: 0.958
93 | AAAGAGAUUGGAAAUCUUCTT against Ipcef1 | inactive: -0.449
94 | GGACAUGUUUGUGUUAAAGTT against Ctnna1 | inactive: 0.187
